# Structures can show the parent of a compound that is named as a salt. This is one part of the list. Single values are uncertain here, since repeats match poorly.
# System: MDA-MB-468
# Assay: phospho-S6 immunofluorescence (DAPI-normalised), per-plate z-score; higher = higher phospho-S6 signal (less pathway suppression)
# Conditions: 24 h
# Experimental: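 GPCR-targeted compound library (MedChemExpress HY-L006) tested on MDA-MB-468 PTEN-null TNBC cells in 384-well plates at 0.1, 1 or 10 uM, combined with vehicle, GDC0941 450 nM or lapatinib 1 uM, for 24 h. Phospho-S6 (S240/244) immunofluorescence normalised to DAPI and expressed as a per-plate z-score; values are the mean of biological triplicates.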
# [1] = compound 0.1 µM, co-treatment: GDC0941 450 nM
# [2] = compound 0.1 µM, co-treatment: lapatinib 1 uM
# [3] = compound 0.1 µM, co-treatment: vehicle
# [4] = compound 1 µM, co-treatment: GDC0941 450 nM
# [5] = compound 1 µM, co-treatment: lapatinib 1 uM
# [6] = compound 1 µM, co-treatment: vehicle
# [7] = compound 10 µM, co-treatment: GDC0941 450 nM
# [8] = compound 10 µM, co-treatment: lapatinib 1 uM
# [9] = compound 10 µM, co-treatment: vehicle
SMILES,phospho-S6 immunofluorescence (z-score) [1],phospho-S6 immunofluorescence (z-score) [2],phospho-S6 immunofluorescence (z-score) [3],phospho-S6 immunofluorescence (z-score) [4],phospho-S6 immunofluorescence (z-score) [5],phospho-S6 immunofluorescence (z-score) [6],phospho-S6 immunofluorescence (z-score) [7],phospho-S6 immunofluorescence (z-score) [8],phospho-S6 immunofluorescence (z-score) [9]
N#Cc1ccc2[nH]cc(CCCCN3CCN(c4ccc5oc(C(N)=O)cc5c4)CC3)c2c1 [Vilazodone],-0.35,0.97,-0.57,0.59,-0.7,0.62,0.37,0.11,1.24
NCCc1c[nH]cn1 [Histamine],0.69,0.57,-0.13,-0.45,-0.07,-0.23,0,1.34,0.58
CCOC(=O)N[C@@H]1CC[C@@H]2[C@@H](C1)C[C@H]1C(=O)O[C@H](C)[C@H]1[C@H]2/C=C/c1ccc(-c2cccc(F)c2)cn1 [Vorapaxar],-4,-3.21,-0.74,-6.58,-7.4,-1.81,-5.92,-11.6,-9.84
COc1ccc2cccc(CCNC(C)=O)c2c1 [Agomelatine],-0.7,-0.93,-2.35,-0.03,0.16,-1.33,0.97,0.54,0.35
CC(=O)OCC(=O)[C@@]12N=C(C)O[C@@H]1C[C@H]1[C@@H]3CCC4=CC(=O)C=C[C@]4(C)[C@H]3[C@@H](O)C[C@@]12C [Deflazacort],-0.81,0.35,-0.35,-0.5,0.39,-0.26,-0.99,-0.57,-0.08
COC1CCC(C(=O)c2ccc3nc4c(cc3c2)CCCO4)CC1 (stereo unspecified),0.37,0.26,0.38,0.06,-0.2,0.27,-0.83,0.85,0.02
CCN(CC)CCNC(=O)c1cc(Cl)c(N)cc1OC [Metoclopramide],0.53,-0.65,0.13,0.15,-0.34,0.08,-0.3,0.63,-0.11
Clc1ccc(Cn2c(CN3CCCC3)nc3ccccc32)cc1 [Clemizole (hydrochloride)],-2.25,0.03,-1.19,-2.66,0.96,-2.55,-3.06,0.26,-1.37
Cc1ccccc1C(=O)Nc1ccc(C(=O)N2CCCC(N(C)C)c3ccccc32)cc1 (stereo unspecified) [Mozavaptan],-0.03,-0.37,0.52,0.33,-0.64,-0.55,-0.25,-0.18,-0.16
COc1ccc(CNC(=O)c2cc(-c3cncc(C)c3)ncc2-c2nccs2)nc1OC,-0.38,-0.18,0.2,-0.6,0.31,-0.04,-0.61,-0.5,0.26
c1cc(CN2CCCNCCNCCCNCC2)ccc1CN1CCCNCCNCCCNCC1 [Plerixafor (octahydrochloride)],-1.05,-0.81,-1.05,-0.58,-0.2,-0.97,-0.24,0.37,-0.74
COc1cc2nc(N3CCN(C(=O)c4ccco4)CC3)nc(N)c2cc1OC [Prazosin (hydrochloride)],0.21,-0.1,-0.57,1.1,-0.37,-0.65,2.1,0.54,0.24
CCCCc1oc2ccc(NS(C)(=O)=O)cc2c1C(=O)c1ccc(OCCCN(CCCC)CCCC)cc1 [Dronedarone],-0.01,-0.43,0.44,0.61,-3.52,0.19,-3.7,-8.99,-9.98
OCCN1CCN(CCCN2c3ccccc3Sc3ccc(Cl)cc32)CC1 [Perphenazine],0.22,0.68,0.94,1.29,-0.67,0.65,-1.28,-5.07,0.82
CC(C)OC(=O)CCC/C=C\C[C@@H]1[C@@H](CC[C@@H](O)CCc2ccccc2)[C@H](O)C[C@@H]1O [Latanoprost],0.12,-1.86,-0.84,1.2,-0.48,-0.18,0.61,-0.08,-0.18
O=C(Nc1cc(Cl)cc(Cl)c1)[C@H]1CCCC[C@H]1C(=O)O,0.34,-0.84,0.75,0.22,-0.22,-1.13,0.83,0.12,0.42
Cc1nn(C)c2c1C(c1ccc(C(F)(F)F)cc1)C(C#N)=C(N)O2 (stereo unspecified),0.72,-0.16,0.23,0.14,0.19,0.13,-1.17,2.28,2.57
CC(=O)Oc1cc2c(s1)CCN(C(C(=O)C1CC1)c1ccccc1F)C2 (stereo unspecified) [Prasugrel],-1.41,-0.39,-1.13,-1.74,0.94,-0.88,-1.29,1.92,-0.48
Cn1cc(C(=O)[C@@H]2CCc3[nH]cnc3C2)c2ccccc21 [Ramosetron (Hydrochloride)],0.04,-0.85,-0.48,-1.12,-0.32,-1.92,-1.27,0,-0.92
CN(C)CCC=C1c2ccccc2C=Cc2ccccc21 [Cyclobenzaprine (hydrochloride)],-0.56,0.41,-0.31,-0.19,-0.29,-1.09,0.8,-0.8,-0.18

SMILES,phospho-S6 immunofluorescence (z-score) [1],phospho-S6 immunofluorescence (z-score) [2],phospho-S6 immunofluorescence (z-score) [3],phospho-S6 immunofluorescence (z-score) [4],phospho-S6 immunofluorescence (z-score) [5],phospho-S6 immunofluorescence (z-score) [6],phospho-S6 immunofluorescence (z-score) [7],phospho-S6 immunofluorescence (z-score) [8],phospho-S6 immunofluorescence (z-score) [9]
CC(C)(C)NCC(O)COc1cccc2c1CCC(=O)N2 (stereo unspecified) [Carteolol (hydrochloride)],0.28,0.83,0.16,0.9,0.86,0.35,0.64,0.45,-0.38
CN1CCC(=C2c3ccccc3CCc3sccc32)CC1 [Pizotifen],-0.04,-0.86,0.42,-0.72,-0.92,-0.44,0.35,-1.87,-0.19
CCN(CC)CCCC(C)Nc1nc(C)cc(Nc2ccc3nc(C)cc(N)c3c2)n1 (stereo unspecified),0.33,0.5,0.66,1.24,0.33,0.38,0.95,1.82,0.49
C[C@]12C=CC(=O)C=C1CC[C@H]1[C@@H]3C[C@@H](O)[C@](O)(C(=O)CO)[C@@]3(C)C[C@H](O)[C@@]12F [Triamcinolone],-0.83,1.58,0.81,-0.82,0.02,1.12,0.04,0.82,0.94
Clc1ccc2nsnc2c1NC1=NCCN1 [Tizanidine (hydrochloride)],1.44,0.93,1.52,1.18,0.93,0.36,1.42,-0.07,0.54
CN(C)CC/C=C1/c2ccccc2Sc2ccc(Cl)cc21 [Chlorprothixene],-0.56,-0.06,-1.61,0,-0.97,-0.07,0.1,-3.66,0.41
C[C@H](NC(=O)c1cc(Cl)ccc1Oc1ccc(F)cc1)c1ccc(C(=O)O)cc1,0.95,0.72,0.69,0.54,0.3,0.73,-0.64,0.18,0.3
CC(C)C(=O)OCC(=O)[C@@]12O[C@H](C3CCCCC3)O[C@@H]1C[C@H]1[C@@H]3CCC4=CC(=O)C=C[C@]4(C)[C@H]3[C@@H](O)C[C@@]12C [Ciclesonide],-0.76,-0.33,-0.43,-0.19,-2.8,-0.52,-3.85,0,-1.25
Clc1cccc(Cl)c1NC1=NCCN1 [Clonidine (hydrochloride)],1.25,0.19,0.71,0.13,-0.49,0.67,0.37,0.75,1.03
C[C@@H](O)[C@@H]1NC(=O)[C@H](CCCCN)NC(=O)[C@@H](Cc2c[nH]c3ccccc23)NC(=O)[C@H](Cc2ccccc2)NC(=O)[C@@H](NC(=O)[C@H](N)Cc2ccccc2)CSSC[C@@H](C(=O)N[C@H](CO)[C@@H](C)O)NC1=O [Octreotide (acetate)],-0.9,-0.4,-1.81,-1.28,1.24,-1.74,0.59,1.9,-0.73
CN1CCN(C(=O)c2cc3cc(Cl)ccc3[nH]2)CC1,1.36,0.14,-0.07,0.29,-0.29,-0.3,0.27,-0.96,0.18
Cc1c(Cc2ccc3ccccc3n2)c2cc(F)ccc2n1CC(=O)O,0.12,0.99,0.23,0.53,0.7,-0.04,0,0.39,0.58
C[C@@H](NCCCc1cccc(C(F)(F)F)c1)c1cccc2ccccc12 [Cinacalcet],0.07,-0.29,-0.45,-0.24,-1.46,-0.87,-5.01,-7.68,-6.21
O=c1ccc2ccc(OCCCCN3CCN(c4cccc5sccc45)CC3)cc2[nH]1 [Brexpiprazole],0.89,-0.12,-0.44,0.71,-0.04,0.43,-5.22,-6.92,-4.57
O=C1NCC2(CCN(CCc3ccccc3)CC2)O1 [Fenspiride (Hydrochloride)],1.85,-0.71,1.02,0.55,-0.08,0,0.59,0.67,1.01
c1ccc2c(c1)N=C(N1CCNCC1)c1ccccc1N2 [DREADD agonist 21],-0.36,-0.5,-0.61,-0.02,-1.5,-0.21,-0.11,-1.74,-0.53
CN1CCC(OC(c2ccccc2)c2ccccc2)CC1 [Diphenylpyraline (hydrochloride)],0.68,0.26,0.38,1.23,0.18,-0.65,0.68,0.42,-0.04
C[C@H]1C[C@H]2[C@@H]3CCC4=CC(=O)C=C[C@]4(C)[C@@]3(F)[C@@H](O)C[C@]2(C)[C@@]1(O)C(=O)CO [Betamethasone],-1.26,1.99,0.01,-2.53,0.9,-3.19,-1.59,1.5,-0.96
C/C(=N\NC(=O)C(NC(=O)c1ccccc1)c1n[nH]c(=O)c2ccccc12)c1cccc(Br)c1 (stereo unspecified),-0.44,0.63,-0.11,0.22,0.14,0.65,0.96,0.13,0.95

# A stretch from the list above, for reference:
SMILES,phospho-S6 immunofluorescence (z-score) [1],phospho-S6 immunofluorescence (z-score) [2],phospho-S6 immunofluorescence (z-score) [3],phospho-S6 immunofluorescence (z-score) [4],phospho-S6 immunofluorescence (z-score) [5],phospho-S6 immunofluorescence (z-score) [6],phospho-S6 immunofluorescence (z-score) [7],phospho-S6 immunofluorescence (z-score) [8],phospho-S6 immunofluorescence (z-score) [9]
O=c1ccc2ccc(OCCCCN3CCN(c4cccc5sccc45)CC3)cc2[nH]1 [Brexpiprazole],0.89,-0.12,-0.44,0.71,-0.04,0.43,-5.22,-6.92,-4.57
O=C1NCC2(CCN(CCc3ccccc3)CC2)O1 [Fenspiride (Hydrochloride)],1.85,-0.71,1.02,0.55,-0.08,0,0.59,0.67,1.01
c1ccc2c(c1)N=C(N1CCNCC1)c1ccccc1N2 [DREADD agonist 21],-0.36,-0.5,-0.61,-0.02,-1.5,-0.21,-0.11,-1.74,-0.53
